These results are taken from publication PMC7811004.

Protein sequences, listed by entry. Tags and fused reporters are not part of them. Lines headed by an entry give the natural chain unless they say otherwise; changes in a name come on top. Residues count along the entry.
UniProt P07585, residues 31-359: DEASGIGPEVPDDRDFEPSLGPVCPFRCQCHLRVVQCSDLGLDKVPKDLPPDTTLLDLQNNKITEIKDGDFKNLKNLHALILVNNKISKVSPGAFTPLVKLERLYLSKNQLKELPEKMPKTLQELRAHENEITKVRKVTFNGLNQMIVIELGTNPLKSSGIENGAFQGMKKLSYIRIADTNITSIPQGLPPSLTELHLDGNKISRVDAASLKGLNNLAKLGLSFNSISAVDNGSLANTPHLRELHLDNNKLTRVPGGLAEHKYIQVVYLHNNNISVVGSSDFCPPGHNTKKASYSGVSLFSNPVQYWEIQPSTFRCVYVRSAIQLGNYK
UniProt P12830: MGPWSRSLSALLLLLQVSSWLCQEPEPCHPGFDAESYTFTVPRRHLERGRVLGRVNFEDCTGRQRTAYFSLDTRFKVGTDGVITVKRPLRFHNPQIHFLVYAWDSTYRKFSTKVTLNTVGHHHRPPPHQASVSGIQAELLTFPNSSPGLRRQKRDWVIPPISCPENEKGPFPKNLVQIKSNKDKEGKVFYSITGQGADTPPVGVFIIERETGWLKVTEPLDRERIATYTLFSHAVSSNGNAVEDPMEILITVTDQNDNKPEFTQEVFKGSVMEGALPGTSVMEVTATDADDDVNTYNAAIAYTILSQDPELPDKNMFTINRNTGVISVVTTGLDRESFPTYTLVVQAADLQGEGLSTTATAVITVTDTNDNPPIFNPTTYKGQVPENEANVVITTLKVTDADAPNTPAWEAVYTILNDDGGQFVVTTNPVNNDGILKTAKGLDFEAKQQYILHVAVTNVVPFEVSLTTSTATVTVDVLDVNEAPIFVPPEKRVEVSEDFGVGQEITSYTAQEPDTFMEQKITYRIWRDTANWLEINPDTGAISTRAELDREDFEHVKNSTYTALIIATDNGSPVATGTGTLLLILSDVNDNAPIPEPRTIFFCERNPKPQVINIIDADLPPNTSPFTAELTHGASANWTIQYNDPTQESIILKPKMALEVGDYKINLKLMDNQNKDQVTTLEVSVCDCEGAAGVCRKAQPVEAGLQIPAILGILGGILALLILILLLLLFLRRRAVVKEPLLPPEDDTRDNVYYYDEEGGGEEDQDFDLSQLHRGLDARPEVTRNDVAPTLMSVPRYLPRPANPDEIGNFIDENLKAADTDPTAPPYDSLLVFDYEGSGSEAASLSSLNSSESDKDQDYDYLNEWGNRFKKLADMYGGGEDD

No constants are given. Whether binding was seen depends on the method and setting. Binding seen in cells or lysates may run through a third protein. Binding calls can cover weak binding; strength is not graded here.

The target in assay [1] is hemagglutinin (HA)-tagged decorin (DCN), full length (human) (UniProt P07585). As to the kind of experiment: co-IP; HEK293T cells, exogenous tagged proteins, reciprocal immunoprecipitation and immunoblot (Supplementary Fig. 9).
Assay [2] has the same target. Nature of the assay: co-IP; IBC cell lines (MDA-IBC3, SUM190, SUM149, BCX010) transfected with HA-tagged DCN or Flag-tagged E-cadherin; whole-cell lysates (1x RIPA buffer); immunoprecipitation with anti-HA or anti-Flag antibody, immunoblot. On the technique in general: In western blotting, separated proteins are transferred to a membrane and probed.
Assay [3] addresses Flag/Strep double-tagged E-cadherin (human) (UniProt P12830). As to the kind of experiment: co-IP; HEK293T cells, exogenous tagged proteins, reciprocal immunoprecipitation and immunoblot (Supplementary Fig. 9).
Assay [4] has the same target. As to the kind of experiment: co-IP; IBC cell lines (MDA-IBC3, SUM190, SUM149, BCX010) transfected with HA-tagged DCN or Flag-tagged E-cadherin; whole-cell lysates (1x RIPA buffer); immunoprecipitation with anti-HA or anti-Flag antibody, immunoblot.

As to “Flag/Strep double-tagged E-cadherin (from UniProt P12830)”, the binding entry in assay [1] and in assay [2] was “binds” in each case.

With “hemagglutinin (HA)-tagged decorin (DCN), full length (from UniProt P07585 31-359)”, the binding entry in assay [3] and in assay [4] was “binds” throughout.
